Results are given in words; binding and its absence hold for the method and conditions named. Binding seen in cells or lysates may run through a third protein. Some entries that bind do so weakly or less than the wild type.
Key:
[1] = target: BCL11B-3 × FLAG (mouse) (UniProt Q99PV8); experiment: co-IP; HEK293 cells transfected with Myc-C/EBPβ and BCL11B-3xFLAG; lysed in RIPA buffer (50 mM Tris-HCl pH 8.0, 150 mM NaCl, 0.1% SDS, 0.5% deoxycholate, 1% Triton X-100); IP with anti-FLAG, immunoblot with anti-c-Myc and anti-FLAG
[2] = target: endogenous BCL11B (mouse (endogenous in 3T3-L1)) (UniProt Q99PV8); experiment: co-IP; endogenous proteins; 3T3-L1 cells differentiated into adipocytes for 24 h, lysed; IP with anti-BCL11B (NB600-262), immunoblot with anti-BCL11B and anti-C/EBP antibodies

Sequences of proteins named here, by UniProt entry; tags and fusion partners are left off.
UniProt Q99PV8: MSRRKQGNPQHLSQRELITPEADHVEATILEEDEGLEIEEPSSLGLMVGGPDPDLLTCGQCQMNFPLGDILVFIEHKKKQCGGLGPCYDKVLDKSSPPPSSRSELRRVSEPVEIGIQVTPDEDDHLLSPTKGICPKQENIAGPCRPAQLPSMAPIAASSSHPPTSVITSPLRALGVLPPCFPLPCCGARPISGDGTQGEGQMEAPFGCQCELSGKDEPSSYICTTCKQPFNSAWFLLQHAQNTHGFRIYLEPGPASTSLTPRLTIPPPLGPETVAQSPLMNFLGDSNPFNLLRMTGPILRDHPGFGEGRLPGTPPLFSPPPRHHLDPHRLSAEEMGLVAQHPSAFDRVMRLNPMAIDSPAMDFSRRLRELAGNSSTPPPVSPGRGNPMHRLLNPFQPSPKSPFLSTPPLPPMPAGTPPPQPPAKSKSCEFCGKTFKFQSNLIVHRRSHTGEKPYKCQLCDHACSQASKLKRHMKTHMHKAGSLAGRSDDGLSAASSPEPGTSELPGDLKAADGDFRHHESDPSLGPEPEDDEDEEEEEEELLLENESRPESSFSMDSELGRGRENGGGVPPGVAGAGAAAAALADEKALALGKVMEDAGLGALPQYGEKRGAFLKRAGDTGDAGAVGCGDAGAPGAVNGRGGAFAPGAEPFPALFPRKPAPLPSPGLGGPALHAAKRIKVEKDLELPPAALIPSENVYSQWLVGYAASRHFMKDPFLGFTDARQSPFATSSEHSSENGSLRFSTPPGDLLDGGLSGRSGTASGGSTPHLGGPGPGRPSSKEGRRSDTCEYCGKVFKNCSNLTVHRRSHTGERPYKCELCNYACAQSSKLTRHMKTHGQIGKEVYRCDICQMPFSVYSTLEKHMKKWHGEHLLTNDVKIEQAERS
UniProt P28033: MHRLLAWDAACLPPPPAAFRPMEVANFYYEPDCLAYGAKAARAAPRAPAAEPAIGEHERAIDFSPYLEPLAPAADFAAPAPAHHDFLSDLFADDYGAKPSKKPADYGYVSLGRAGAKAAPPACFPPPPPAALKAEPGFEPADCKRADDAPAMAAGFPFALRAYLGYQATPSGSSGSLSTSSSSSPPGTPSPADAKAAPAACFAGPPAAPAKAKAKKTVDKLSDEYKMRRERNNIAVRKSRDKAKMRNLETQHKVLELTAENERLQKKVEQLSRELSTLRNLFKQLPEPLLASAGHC

Substance | binding [1] | binding [2]
Myc-C/EBPβ (from UniProt P28033 1-296) | binds | 
endogenous C/EBPβ (from UniProt P28033 1-296) |  | binds
